Laboratory results from paper PMC10665487.
These are yes or no findings as the source states them, for the method shown. In cells and extracts the contact can be indirect. Some entries that bind do so weakly or less than the wild type.

The chains behind the UniProt entries cited, without tags or fusion partners. Where a name states a change or a piece, a line headed by the entry shows the natural chain unless it says otherwise.
UniProt P83916: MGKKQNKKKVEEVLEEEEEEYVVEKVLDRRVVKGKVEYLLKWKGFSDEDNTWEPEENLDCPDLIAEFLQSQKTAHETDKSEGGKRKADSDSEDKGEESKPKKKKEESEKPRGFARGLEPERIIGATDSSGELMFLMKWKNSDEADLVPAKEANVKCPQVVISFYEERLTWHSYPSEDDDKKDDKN
UniProt P0C0S5: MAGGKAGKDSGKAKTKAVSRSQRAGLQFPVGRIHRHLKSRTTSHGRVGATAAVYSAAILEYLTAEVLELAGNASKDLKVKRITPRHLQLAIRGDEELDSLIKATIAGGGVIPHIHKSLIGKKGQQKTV

Assays:
HP1β-RFP = HP1β-RFP (UniProt P83916); assay: FRET or BRET; FRET by time-correlated single-photon counting in PCH foci of living NIH3T3 cells cotransfected for 48 h with H2A.Z.1-EGFP (donor) and HP1-RFP (acceptor); relative FRET % against GFP-RFP (100%) and donor alone (0%)
HP1β-HA [1] = molecular target: HP1β-HA (UniProt P83916); assay: co-IP; HA agarose beads, nuclear extracts of transfected HEK293F cells (Dignam protocol, Benzonase 6 h at 4°C), overnight at 4°C, washes with BC100 and BC500 (500 mM KCl), elution with 0.2 M glycine pH 2.3; blot
HP1β-HA [2] = molecular target: HP1β-HA (UniProt P83916); assay: co-IP; HA beads, whole cell extracts of HEK293F cells expressing HA-tagged HP1 constructs; blot of endogenous H2A.Z

| Substance | binding (HP1β-RFP) | binding (HP1β-HA [1]) | binding (HP1β-HA [2]) |
| --- | --- | --- | --- |
| H2A.Z.1-EGFP (from UniProt P0C0S5 1-128) | binds | binds |  |
| endogenous H2A.Z (from UniProt P0C0S5 1-128) |  | binds | binds |
